# Assay results taken from patent US20130225508A1, “PEPTIDE CAPABLE OF BINDING TO IMMUNOGLOBULIN” (priority 2010, published 2013).
# Part of at least one peptide drawing is inferred or uncertain, most often the ends. Non-standard residues stand in square brackets, D forms with d. Residues, ends and D or L forms follow the SMILES beside them.
# System: TNF-α in plasma
# Test: TNF-α in plasma of adjuvant arthritis rats (ELISA)
# Assay type: in vivo, rat
# Conditions: day 21 post-adjuvant
# Procedure: TNF-α and IL-1β in plasma were measured in a double-point method using the TNF-α ELISA kit (Lbis® TNF-α-rat) and the IL-1β ELISA kit (Quantikine® Rat IL-1β/IL-1F2).
# On day 21 post-adjuvant, the animals were subjected to autopsy, and plasma was prepared to measure IL-1β and TIN-α concentrations in plasma. In all the groups for which measurements were made, the concentration of TNF-α was below the detection limit (8 pg/mL).
structure (smiles),measurement,setting,value
"CC(C)C[C@@H](NC(=O)CNC(=O)[C@H]1CCCN1)C(=O)N[C@H](CCC(=O)O)C(=O)N[C@H](CCCCN)C(=O)N[C@H](Cc1ccccc1)C(=O)O [Test substance VII-2, dPGdLdEdKdF] (H-[dP]G[dL][dE][dK][dF]-OH; N-terminus and C-terminus assumed)",Concentrations of TNF-α in plasma,10 mg/kg intraperitoneal from day 10,N.D (N.D.: below detection limit)
same,Concentrations of TNF-α in plasma,100 mg/kg intraperitoneal from day 10,N.D (N.D.: below detection limit)
